Assay results reported in publication PMC5864089.
These are yes or no findings as the source states them, for the method shown. In cells and extracts the contact can be indirect. Some entries that bind do so weakly or less than the wild type.

Target: T1, LaminB (Drosophila (endogenous in OR embryos and Kc167 cells)) (UniProt P08928)
T1 sequence: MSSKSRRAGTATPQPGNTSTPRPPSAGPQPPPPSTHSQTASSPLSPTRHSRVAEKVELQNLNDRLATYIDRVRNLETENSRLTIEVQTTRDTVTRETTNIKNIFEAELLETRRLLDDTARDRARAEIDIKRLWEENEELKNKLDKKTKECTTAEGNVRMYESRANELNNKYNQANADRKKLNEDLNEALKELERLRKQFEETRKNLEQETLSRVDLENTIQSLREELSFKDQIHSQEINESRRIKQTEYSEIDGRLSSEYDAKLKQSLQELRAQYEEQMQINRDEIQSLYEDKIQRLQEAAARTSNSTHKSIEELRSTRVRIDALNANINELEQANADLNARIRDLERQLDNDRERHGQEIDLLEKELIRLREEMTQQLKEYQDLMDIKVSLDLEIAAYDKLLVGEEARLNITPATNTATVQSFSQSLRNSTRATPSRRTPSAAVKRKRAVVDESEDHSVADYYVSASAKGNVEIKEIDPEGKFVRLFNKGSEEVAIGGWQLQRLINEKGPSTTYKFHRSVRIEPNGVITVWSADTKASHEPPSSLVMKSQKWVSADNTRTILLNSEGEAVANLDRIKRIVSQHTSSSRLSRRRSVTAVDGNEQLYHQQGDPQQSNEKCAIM
Assay: co-IP; Kc nuclear extracts (sonicated) in IP buffer (50 mM Tris-HCl pH 7.4, 150 mM NaCl, 0.3 mM MgCl2, 0.3% Triton X-100); monoclonal anti-LaminB ADL67.10 1 h at 4°C, Protein G beads 2 h; control normal mouse serum/IgG; Western blotting

- binding: binds
B1: Argonaute2 (protein, UniProt Q9VUQ5 1-1214)
chain: MGKKDKNKKGGQDSAAAPQPQQQQKQQQQRQQQPQQLQQPQQLQQPQQLQQPQQQQQQQPHQQQQQSSRQQPSTSSGGSRASGFQQGGQQQKSQDAEGWTAQKKQGKQQVQGWTKQGQQGGHQQGRQGQDGGYQQRPPGQQQGGHQQGRQGQEGGYQQRPPGQQQGGHQQGRQGQEGGYQQRPSGQQQGGHQQGRQGQEGGYQQRPPGQQQGGHQQGRQGQEGGYQQRPSGQQQGGHQQGRQGQEGGYQQRPPGQQQGGHQQGRQGQEGGYQQRPPGQQQGGHEQGRQGQEGGYQQRPSGQQQGGHQQGRQGQEGGYQQRPSGQQQGGHQQGRQGQEGGYQQRPSGQQQGGHQQGRQGQEGGYQQRPPGQQPNQTQSQGQYQSRGPPQQQQAAPLPLPPQPAGSIKRGTIGKPGQVGINYLDLDLSKMPSVAYHYDVKIMPERPKKFYRQAFEQFRVDQLGGAVLAYDGKASCYSVDKLPLNSQNPEVTVTDRNGRTLRYTIEIKETGDSTIDLKSLTTYMNDRIFDKPMRAMQCVEVVLASPCHNKAIRVGRSFFKMSDPNNRHELDDGYEALVGLYQAFMLGDRPFLNVDISHKSFPISMPMIEYLERFSLKAKINNTTNLDYSRRFLEPFLRGINVVYTPPQSFQSAPRVYRVNGLSRAPASSETFEHDGKKVTIASYFHSRNYPLKFPQLHCLNVGSSIKSILLPIELCSIEEGQALNRKDGATQVANMIKYAATSTNVRKRKIMNLLQYFQHNLDPTISRFGIRIANDFIVVSTRVLSPPQVEYHSKRFTMVKNGSWRMDGMKFLEPKPKAHKCAVLYCDPRSGRKMNYTQLNDFGNLIISQGKAVNISLDSDVTYRPFTDDERSLDTIFADLKRSQHDLAIVIIPQFRISYDTIKQKAELQHGILTQCIKQFTVERKCNNQTIGNILLKINSKLNGINHKIKDDPRLPMMKNTMYIGADVTHPSPDQREIPSVVGVAASHDPYGASYNMQYRLQRGALEEIEDMFSITLEHLRVYKEYRNAYPDHIIYYRDGVSDGQFPKIKNEELRCIKQACDKVGCKPKICCVIVVKRHHTRFFPSGDVTTSNKFNNVDPGTVVDRTIVHPNEMQFFMVSHQAIQGTAKPTRYNVIENTGNLDIDLLQQLTYNLCHMFPRCNRSVSYPAPAYLAHLVAARGRVYLTGTNRFLDLKKEYAKRTIVPEFMKKNPMYFV
